Assay results from publication PMC11793186.
No constants are given. Whether binding was seen depends on the method and setting. In cells and extracts the contact can be indirect. Some binding calls cover weakened binding; strength is not graded here.

The chains behind the UniProt entries cited, without tags or fusion partners.
UniProt P63168: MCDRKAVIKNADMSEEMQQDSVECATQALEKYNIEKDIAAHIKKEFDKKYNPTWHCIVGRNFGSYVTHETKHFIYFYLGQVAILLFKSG
UniProt Q0GNC1: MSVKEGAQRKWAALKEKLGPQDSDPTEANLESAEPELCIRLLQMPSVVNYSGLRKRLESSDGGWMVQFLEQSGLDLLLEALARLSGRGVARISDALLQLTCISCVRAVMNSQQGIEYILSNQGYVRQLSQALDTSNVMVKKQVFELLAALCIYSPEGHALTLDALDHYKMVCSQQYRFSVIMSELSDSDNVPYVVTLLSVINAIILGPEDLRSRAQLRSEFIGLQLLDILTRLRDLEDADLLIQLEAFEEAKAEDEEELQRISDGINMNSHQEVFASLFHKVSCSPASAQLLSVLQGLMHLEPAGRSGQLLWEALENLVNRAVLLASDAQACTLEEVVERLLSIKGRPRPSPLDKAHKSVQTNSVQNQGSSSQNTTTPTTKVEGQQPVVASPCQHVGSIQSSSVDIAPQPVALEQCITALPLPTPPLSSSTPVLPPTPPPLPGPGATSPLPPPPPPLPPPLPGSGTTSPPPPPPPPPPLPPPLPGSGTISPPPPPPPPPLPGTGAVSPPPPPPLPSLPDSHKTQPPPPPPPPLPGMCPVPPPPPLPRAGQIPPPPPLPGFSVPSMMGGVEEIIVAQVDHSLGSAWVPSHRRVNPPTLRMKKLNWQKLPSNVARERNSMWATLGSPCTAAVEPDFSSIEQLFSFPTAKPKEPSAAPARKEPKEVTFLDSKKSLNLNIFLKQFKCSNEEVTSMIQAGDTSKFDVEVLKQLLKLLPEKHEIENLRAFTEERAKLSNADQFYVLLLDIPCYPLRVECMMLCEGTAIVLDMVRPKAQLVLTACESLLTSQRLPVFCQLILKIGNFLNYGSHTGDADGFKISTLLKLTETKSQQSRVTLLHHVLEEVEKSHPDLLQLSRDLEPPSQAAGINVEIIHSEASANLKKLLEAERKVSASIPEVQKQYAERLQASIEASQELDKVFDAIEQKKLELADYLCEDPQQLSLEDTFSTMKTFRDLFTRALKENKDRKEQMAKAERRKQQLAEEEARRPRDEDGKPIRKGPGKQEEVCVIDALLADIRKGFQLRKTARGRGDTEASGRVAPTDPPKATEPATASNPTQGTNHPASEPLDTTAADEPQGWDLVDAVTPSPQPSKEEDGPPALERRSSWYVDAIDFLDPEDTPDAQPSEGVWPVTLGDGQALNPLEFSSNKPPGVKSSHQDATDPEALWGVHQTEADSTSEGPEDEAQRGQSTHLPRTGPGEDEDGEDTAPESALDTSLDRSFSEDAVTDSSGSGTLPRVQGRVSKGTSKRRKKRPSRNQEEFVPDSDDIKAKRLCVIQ

B1: proteasomal inhibitor of 31kD (PI31) (protein, UniProt Q8BHL8 1-271)
chain: MAGLEVLFASAAPSMSCPQDALVCFLHWEVVTNGYYALGTGDQPGPSDKKSELLPAKWNSNKELYALRYESKDGARKLLLKAVSVENGMIINVLELGTQQVADLTLNLDDYIDAEDLSDFHRTYKNSEELRSQIRSGIITPIHEQWEKARANSPPREFPPATAREVDPLQISSHRPHTSRQPAWRDPLSPFAVGGDDLDPFGCQRGGMIVDPLRSGFPRVLIDPSSGLPNRLPPGAVPPGARFDPFGPIGTSPSGPNPDHLPPPGYDDMYL

Tests used:
[1] = molecular target: dynein light chain 1 (Dynll1) (mouse (endogenous in glomeruli)) (UniProt P63168); test: co-IP; glomerular lysates of wt/wt mice; precipitated with an anti-Dynll1 antibody, INF2 and PI31 detected by blot; quantified as fraction of the protein in the Dynll1 pulldown relative to the total in lysates
[2] = molecular target: dynein light chain 1 (Dynll1) (mouse (endogenous in glomeruli)) (UniProt P63168); test: as above; remark: listed apart in the source
[3] = molecular target: dynein light chain 1 (Dynll1) (mouse (endogenous in glomeruli)) (UniProt P63168); test: co-IP; glomerular lysates of INF2 R218Q KI mice (wt/ki and ki/ki), without or with puromycin aminonucleoside (PA) treatment of the mice; precipitated with an anti-Dynll1 antibody, INF2 and PI31 detected by blot; quantified as fraction of the protein in the Dynll1 pulldown relative to the total in lysates

Molecule | binding [1] | binding [2] | binding [3]
inverted formin 2 (INF2), wild type (from UniProt Q0GNC1 1-1273) | binds | – | –
B1 | – | binds weakly | binds
